Measured data: PubChem BioAssay AID602196 (INSERM, 2012)
The whole screen tested about 23,000 reagents; this is a random part of them. In the full data, 455 (2%) are marked active. 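Active includes both protection and sensitisation; some change values fall well beyond the stated -50 to +50 range.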 Further read-outs or replicates are left out here. Not given: the amount of reagent.

Test: 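Modifiers of cisplatin sensitivity in A549 cells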
Cells: human A549 lung cancer cells
Knock-down reagent: siRNA pair against human genes
Duration: 48 h transfection before cisplatin; time from cisplatin to read-out not stated
Conditions: cisplatin at a dose killing half of control-siRNA cells; exact dose and duration not given
Detection: 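Cisplatin cell death as a shift from the 50% death seen with control siRNA; siRNAs toxic or growth-blocking alone scored 0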
Scale: two-siRNA summed score (-2 to +2): higher = both siRNAs protect from cisplatin killing; -2 means both sensitise
Call rule: 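Each siRNA scores 0 if harmful alone by LDH or WST-1, otherwise +1 if it reduces and -1 if it increases cisplatin killing; a gene is active when both siRNAs agree (sum +2 or -2)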
Calls: active = both siRNAs shift cisplatin killing the same way; inactive = no consistent shift, or siRNA harmful alone

How did the screen score GMDS?
two-siRNA summed score (-2 to +2): 0; call: inactive

Which result is listed for LOC389239?
two-siRNA summed score (-2 to +2): 0; call: inactive

For DNAJC14, what does the deposit list?
two-siRNA summed score (-2 to +2): 0; call: inactive

What did the screen give for HTATIP2?
two-siRNA summed score (-2 to +2): 0; call: inactive

How did the screen score RTBDN?
two-siRNA summed score (-2 to +2): 0; call: inactive

Which result is listed for LOC400475?
two-siRNA summed score (-2 to +2): 0; call: inactive

What is on record for SPATC1L?
two-siRNA summed score (-2 to +2): 1; call: inactive

How did the screen score RBP5?
two-siRNA summed score (-2 to +2): 0; call: inactive

For LOC391528, what does the deposit list?
two-siRNA summed score (-2 to +2): 1; call: inactive

For EIF4A3, how do the results read?
two-siRNA summed score (-2 to +2): 0; call: inactive

Which result is listed for WNK3?
two-siRNA summed score (-2 to +2): 1; call: inactive

For DDX42, what does the deposit list?
two-siRNA summed score (-2 to +2): 0; call: inactive

How did the screen score RAB43?
two-siRNA summed score (-2 to +2): 1; call: inactive

For LOC401513, what does the deposit list?
two-siRNA summed score (-2 to +2): 1; call: inactive

Which result is listed for MAPK6?
two-siRNA summed score (-2 to +2): 0; call: inactive

Looked up above:
SPATC1L, two-siRNA summed score (-2 to +2) → 1
DNAJC14, call: inactive
Result for MAPK6 under “two-siRNA summed score (-2 to +2)”: 0
LOC391528, call → inactive

The results go on:
Which result is listed for CARM1LP?
two-siRNA summed score (-2 to +2): 1; call: inactive

For MCHR2, how do the results read?
two-siRNA summed score (-2 to +2): 0; call: inactive

What is on record for BNIP3?
two-siRNA summed score (-2 to +2): 1; call: inactive

How did the screen score VSTM2L?
two-siRNA summed score (-2 to +2): -1; call: inactive

With ANKRD34B, what does the deposit list?
two-siRNA summed score (-2 to +2): 0; call: inactive

For THAP11, how do the results read?
two-siRNA summed score (-2 to +2): -1; call: inactive

Which result is listed for FARP1?
two-siRNA summed score (-2 to +2): 0; call: inactive

With ZFP91, what does the deposit list?
two-siRNA summed score (-2 to +2): 0; call: inactive

For RGPD5, what was measured?
two-siRNA summed score (-2 to +2): -1; call: inactive

What did the screen give for RNASE4?
two-siRNA summed score (-2 to +2): 0; call: inactive

What is on record for LOC441546?
two-siRNA summed score (-2 to +2): 0; call: inactive

For FLJ10246, what does the deposit list?
two-siRNA summed score (-2 to +2): 0; call: inactive

For MUC21, what was measured?
two-siRNA summed score (-2 to +2): 0; call: inactive

What is on record for ANKRD62?
two-siRNA summed score (-2 to +2): 1; call: inactive

For HECTD1, what was measured?
two-siRNA summed score (-2 to +2): -1; call: inactive

With MAGEA2B, what was measured?
two-siRNA summed score (-2 to +2): 1; call: inactive
